Source: PubChem BioAssay AID602196 (INSERM, 2012)
In all, the deposit lists about 23,000 reagents; this is a random part of them. 455 of all reagents (2%) count as active. 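Active includes both protection and sensitisation; some change values fall well beyond the stated -50 to +50 range.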 Unmarked entries are inactive. Not all columns of the deposit are shown. Reagent sequences are not shown. Not stated in the record: the amount of reagent.

Assay: 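Genes whose knock-down alters cisplatin killing of lung cancer cells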
Cell system: human A549 lung cancer cells
Reagents: siRNA pair against human genes
Time to read-out: 48 h transfection before cisplatin; time from cisplatin to read-out not stated
Challenge: cisplatin at a dose killing half of control-siRNA cells; exact dose and duration not given
Detection: 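Cisplatin cell death as a shift from the 50% death seen with control siRNA; siRNAs toxic or growth-blocking alone scored 0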
Reading the numbers: two-siRNA summed score (-2 to +2): higher = both siRNAs protect from cisplatin killing; -2 means both sensitise
Rule for the call: 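Each siRNA scores 0 if harmful alone by LDH or WST-1, otherwise +1 if it reduces and -1 if it increases cisplatin killing; a gene is active when both siRNAs agree (sum +2 or -2)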
Meaning of the calls: active = both siRNAs shift cisplatin killing the same way; inactive = no consistent shift, or siRNA harmful alone

no.	target	two-siRNA summed score (-2 to +2)
1	DLGAP3	0
2	VCL	-1
3	SLC44A1	0
4	MFHAS1	-1
5	TANGO2	0
6	EIF2B4	-1
7	LOC442049	0
8	LOC441045	0
9	FOXP1	0
10	LOC442600	1
11	PAQR9	0
12	INPP4A	0
13	LOC442698	0
14	LOC440979	0
15	LOC387643	0
16	BUD31	1
17	PNPO	-1
18	MBOAT7	0
19	CUL4B	0
20	FAM184A	0
21	AMPD2	1
22	KHDRBS2	1
23	TAS2R5	0
24	MAP7D2	1
25	RPS8	0

Continued (3 carried over from the part before).
no.	target	two-siRNA summed score (-2 to +2)
23	TAS2R5	0
24	MAP7D2	1
25	RPS8	0
26	MTUS2	0
27	MAP1LC3BP1	1
28	LOC441375	0
29	SREK1IP1	0
30	FRZB	0
31	KCNG2	-1
32	CCDC116	0
33	LOC440286	0
34	AP1S1	0
35	TMEM203	0
36	LOC388554	0
37	LOC441347 (retired record)	0
38	ALKAL2	0
39	STK31	0
